Results from article PMC13384758.
These are yes or no findings as the source states them, for the method shown. In cells and extracts the contact can be indirect. Some results given as binding are weak or reduced against the parent protein; the word gives no strength.

Protein sequences, listed by entry. Tags and fused reporters are not part of them.
UniProt P01106: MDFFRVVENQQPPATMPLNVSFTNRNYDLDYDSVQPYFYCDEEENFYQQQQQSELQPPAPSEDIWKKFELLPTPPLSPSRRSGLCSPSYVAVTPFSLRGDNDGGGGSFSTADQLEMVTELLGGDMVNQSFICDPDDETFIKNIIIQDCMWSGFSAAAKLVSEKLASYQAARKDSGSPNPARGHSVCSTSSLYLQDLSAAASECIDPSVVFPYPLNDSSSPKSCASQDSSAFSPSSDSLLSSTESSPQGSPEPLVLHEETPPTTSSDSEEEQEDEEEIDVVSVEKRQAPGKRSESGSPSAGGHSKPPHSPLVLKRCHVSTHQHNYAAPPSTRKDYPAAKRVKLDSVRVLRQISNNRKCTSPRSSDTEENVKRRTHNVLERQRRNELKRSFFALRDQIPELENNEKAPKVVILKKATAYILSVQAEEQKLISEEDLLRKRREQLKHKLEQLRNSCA

Biological target: T1, MED30 (human) (UniProt Q96HR3)
T1 sequence: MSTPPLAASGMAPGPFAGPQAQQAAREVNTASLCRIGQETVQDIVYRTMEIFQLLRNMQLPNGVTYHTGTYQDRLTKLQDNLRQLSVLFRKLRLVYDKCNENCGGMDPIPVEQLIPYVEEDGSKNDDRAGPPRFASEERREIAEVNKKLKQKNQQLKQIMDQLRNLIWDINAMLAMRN
Experiment: co-IP; Mia PaCa-2 cells cross-linked with 1 mM EGS for 20 min at room temperature, quenched with glycine; lysis in 150 mM NaCl, 20 mM Tris-Cl pH 7.4, 1% Triton X-100; 1 ug antibody overnight at 4 C, Protein A/G magnetic beads; immunoblot

- binding: binds
Substance: MYC (from UniProt P01106 1-454)
